± gives the standard deviation of the averaged measurements. The entries are a selection whose mix differs from that of the whole data set.
Compound: Nc1ncnc2c1ncn2[C@@H]1O[C@H](COP(=O)(O)OP(=O)(O)OP(=O)(O)O)[C@@H](O)[C@H]1O [adenosine triphosphate]
Experiment: NP40-soluble protein abundance relative to vehicle (solubility fold change) (ratio); higher = more soluble protein in presence of ATP
In short: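 Values are fold changes against the detergent-processed vehicle, based on vsn-normalised intensities. Jurkat crude lysate was treated at eight concentrations from 0.1 to 10 mM (10 min at room temperature, then 3 min at 37 °C), solubilised with 0.8% NP40 and benzonase, ultracentrifuged and analysed by TMT-labelled LC-MS/MS over three independent experiments.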

Amino acid sequences for entries named in this document (tags omitted). A change or cut given only in a name is not applied to a line headed by its entry.
UniProt Q6ICL3: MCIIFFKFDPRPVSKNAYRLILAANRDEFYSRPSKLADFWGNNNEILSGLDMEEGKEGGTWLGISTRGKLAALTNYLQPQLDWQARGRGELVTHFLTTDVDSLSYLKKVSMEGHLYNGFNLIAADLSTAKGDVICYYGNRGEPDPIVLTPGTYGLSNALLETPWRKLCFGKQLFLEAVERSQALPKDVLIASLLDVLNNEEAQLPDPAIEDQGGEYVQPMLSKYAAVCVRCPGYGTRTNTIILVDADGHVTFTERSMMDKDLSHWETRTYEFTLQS
UniProt Q6P1K2: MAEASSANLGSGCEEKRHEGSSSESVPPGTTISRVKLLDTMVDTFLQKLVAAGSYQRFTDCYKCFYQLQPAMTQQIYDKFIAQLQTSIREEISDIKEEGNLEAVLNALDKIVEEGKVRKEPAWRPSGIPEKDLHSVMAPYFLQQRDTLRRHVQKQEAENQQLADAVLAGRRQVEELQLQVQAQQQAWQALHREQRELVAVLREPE
UniProt Q4LDG9: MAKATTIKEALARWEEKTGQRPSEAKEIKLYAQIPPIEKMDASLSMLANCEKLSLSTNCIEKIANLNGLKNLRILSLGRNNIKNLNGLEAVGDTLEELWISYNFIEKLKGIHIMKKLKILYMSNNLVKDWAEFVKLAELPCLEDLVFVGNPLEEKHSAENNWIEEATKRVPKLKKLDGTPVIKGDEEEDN
UniProt Q5T2D3, whole entry: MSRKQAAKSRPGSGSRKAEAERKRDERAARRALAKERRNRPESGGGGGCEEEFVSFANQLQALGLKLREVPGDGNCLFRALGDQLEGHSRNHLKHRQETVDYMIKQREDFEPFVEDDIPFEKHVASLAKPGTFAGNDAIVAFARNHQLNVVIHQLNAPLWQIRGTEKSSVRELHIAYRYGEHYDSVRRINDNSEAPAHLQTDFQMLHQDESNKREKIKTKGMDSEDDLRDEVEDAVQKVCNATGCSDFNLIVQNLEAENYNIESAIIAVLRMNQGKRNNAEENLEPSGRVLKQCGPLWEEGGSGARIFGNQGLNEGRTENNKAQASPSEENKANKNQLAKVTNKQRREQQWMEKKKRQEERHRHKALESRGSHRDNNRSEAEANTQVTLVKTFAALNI
UniProt Q53TN4: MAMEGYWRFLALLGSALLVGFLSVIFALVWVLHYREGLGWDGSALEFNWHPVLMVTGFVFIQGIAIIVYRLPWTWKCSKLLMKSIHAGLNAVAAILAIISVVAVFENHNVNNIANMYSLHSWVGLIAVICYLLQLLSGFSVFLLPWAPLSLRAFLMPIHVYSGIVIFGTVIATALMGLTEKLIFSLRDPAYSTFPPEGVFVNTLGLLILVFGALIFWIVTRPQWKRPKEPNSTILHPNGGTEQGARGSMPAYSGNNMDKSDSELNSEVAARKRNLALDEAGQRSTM
UniProt Q5VZF2: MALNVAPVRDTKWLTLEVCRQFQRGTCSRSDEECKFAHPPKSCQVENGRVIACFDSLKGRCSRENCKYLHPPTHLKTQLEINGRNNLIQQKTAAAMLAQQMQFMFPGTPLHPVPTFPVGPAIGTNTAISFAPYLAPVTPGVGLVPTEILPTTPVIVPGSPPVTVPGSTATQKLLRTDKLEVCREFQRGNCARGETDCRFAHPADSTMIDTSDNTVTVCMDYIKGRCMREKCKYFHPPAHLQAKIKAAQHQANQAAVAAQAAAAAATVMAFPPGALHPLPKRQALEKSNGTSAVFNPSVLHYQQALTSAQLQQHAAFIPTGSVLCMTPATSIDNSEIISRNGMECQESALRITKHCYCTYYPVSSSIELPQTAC
UniProt Q6PD74: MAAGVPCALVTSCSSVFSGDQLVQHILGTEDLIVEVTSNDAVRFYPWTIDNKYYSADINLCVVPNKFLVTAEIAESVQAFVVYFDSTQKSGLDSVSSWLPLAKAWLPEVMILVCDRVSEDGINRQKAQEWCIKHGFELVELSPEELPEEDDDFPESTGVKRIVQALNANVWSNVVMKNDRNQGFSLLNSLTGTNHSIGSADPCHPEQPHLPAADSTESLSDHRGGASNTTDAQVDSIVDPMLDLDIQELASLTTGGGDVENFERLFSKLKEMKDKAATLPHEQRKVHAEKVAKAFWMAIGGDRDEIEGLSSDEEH
UniProt Q5VZE5: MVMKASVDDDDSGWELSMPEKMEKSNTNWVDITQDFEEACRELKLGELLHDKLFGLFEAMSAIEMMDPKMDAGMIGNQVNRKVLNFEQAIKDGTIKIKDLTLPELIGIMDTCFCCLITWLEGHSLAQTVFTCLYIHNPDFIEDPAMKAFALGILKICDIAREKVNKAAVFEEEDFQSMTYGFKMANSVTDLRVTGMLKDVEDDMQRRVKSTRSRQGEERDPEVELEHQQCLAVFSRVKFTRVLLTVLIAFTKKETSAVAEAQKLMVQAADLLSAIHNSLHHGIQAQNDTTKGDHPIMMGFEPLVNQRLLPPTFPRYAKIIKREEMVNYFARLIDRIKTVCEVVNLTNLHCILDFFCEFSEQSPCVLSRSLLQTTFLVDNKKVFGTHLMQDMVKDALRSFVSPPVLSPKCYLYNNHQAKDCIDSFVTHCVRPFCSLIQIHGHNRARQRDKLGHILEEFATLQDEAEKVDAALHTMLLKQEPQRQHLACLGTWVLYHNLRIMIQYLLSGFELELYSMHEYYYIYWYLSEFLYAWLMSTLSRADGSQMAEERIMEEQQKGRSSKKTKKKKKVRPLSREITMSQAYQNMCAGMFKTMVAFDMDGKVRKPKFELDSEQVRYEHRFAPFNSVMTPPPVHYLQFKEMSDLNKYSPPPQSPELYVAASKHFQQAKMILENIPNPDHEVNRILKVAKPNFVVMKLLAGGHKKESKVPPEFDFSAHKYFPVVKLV
UniProt Q66PJ3: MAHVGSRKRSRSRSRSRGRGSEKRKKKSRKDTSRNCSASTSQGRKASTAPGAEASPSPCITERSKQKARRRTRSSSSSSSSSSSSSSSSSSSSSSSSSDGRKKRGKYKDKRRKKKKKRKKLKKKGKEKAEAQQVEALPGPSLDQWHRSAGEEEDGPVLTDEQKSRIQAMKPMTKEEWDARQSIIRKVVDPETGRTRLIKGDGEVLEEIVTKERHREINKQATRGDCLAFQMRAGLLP
UniProt Q68D91: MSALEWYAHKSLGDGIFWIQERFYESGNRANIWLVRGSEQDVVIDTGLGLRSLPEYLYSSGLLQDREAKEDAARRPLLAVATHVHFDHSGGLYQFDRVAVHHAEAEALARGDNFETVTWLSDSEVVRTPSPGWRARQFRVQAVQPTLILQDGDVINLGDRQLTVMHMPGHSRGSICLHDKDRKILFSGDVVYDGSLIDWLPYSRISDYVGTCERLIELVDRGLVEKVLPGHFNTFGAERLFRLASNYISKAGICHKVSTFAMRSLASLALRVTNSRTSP
UniProt Q5SRE5: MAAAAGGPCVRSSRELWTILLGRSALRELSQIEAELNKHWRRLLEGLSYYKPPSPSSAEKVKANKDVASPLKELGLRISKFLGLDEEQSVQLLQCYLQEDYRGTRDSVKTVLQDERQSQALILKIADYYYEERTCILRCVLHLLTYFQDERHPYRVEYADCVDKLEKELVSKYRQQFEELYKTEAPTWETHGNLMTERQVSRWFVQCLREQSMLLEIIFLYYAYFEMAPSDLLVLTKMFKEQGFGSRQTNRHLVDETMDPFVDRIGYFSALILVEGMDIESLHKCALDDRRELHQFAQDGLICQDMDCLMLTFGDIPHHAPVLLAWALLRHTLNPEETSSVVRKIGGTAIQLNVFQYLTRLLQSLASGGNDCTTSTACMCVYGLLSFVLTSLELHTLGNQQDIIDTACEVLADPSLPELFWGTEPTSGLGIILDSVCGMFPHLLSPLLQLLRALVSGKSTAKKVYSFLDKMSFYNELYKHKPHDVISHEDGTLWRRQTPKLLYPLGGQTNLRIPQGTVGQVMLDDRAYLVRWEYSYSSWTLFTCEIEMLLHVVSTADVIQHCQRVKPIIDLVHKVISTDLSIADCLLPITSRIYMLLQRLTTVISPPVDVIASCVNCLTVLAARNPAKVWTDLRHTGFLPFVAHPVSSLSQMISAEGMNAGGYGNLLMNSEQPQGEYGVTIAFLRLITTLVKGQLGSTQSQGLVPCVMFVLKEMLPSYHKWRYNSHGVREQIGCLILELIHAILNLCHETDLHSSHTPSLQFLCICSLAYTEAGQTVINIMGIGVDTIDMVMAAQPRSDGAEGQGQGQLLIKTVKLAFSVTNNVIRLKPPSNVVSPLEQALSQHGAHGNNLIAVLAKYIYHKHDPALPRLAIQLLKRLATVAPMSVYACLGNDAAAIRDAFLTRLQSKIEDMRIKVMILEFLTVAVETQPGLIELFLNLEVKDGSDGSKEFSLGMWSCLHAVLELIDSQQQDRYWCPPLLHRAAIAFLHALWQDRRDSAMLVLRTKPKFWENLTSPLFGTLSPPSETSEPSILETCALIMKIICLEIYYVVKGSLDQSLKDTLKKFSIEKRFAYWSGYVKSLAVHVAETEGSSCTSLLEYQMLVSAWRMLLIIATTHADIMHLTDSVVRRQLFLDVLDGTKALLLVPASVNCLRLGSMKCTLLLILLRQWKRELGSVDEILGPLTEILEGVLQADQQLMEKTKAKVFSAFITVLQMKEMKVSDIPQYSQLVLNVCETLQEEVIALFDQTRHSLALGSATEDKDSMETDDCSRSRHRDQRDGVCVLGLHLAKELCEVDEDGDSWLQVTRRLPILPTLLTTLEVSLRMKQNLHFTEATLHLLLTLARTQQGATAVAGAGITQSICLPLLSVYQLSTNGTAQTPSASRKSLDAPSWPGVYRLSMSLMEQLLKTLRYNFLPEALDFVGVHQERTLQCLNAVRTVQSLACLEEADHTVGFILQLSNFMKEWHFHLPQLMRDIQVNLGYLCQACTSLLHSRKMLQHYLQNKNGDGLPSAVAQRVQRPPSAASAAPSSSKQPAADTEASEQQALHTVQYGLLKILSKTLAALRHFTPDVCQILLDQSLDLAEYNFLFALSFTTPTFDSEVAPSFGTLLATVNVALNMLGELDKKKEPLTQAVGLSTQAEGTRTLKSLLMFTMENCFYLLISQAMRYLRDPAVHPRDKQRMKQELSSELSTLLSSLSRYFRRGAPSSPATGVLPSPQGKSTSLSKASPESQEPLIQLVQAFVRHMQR
UniProt Q5MNZ6: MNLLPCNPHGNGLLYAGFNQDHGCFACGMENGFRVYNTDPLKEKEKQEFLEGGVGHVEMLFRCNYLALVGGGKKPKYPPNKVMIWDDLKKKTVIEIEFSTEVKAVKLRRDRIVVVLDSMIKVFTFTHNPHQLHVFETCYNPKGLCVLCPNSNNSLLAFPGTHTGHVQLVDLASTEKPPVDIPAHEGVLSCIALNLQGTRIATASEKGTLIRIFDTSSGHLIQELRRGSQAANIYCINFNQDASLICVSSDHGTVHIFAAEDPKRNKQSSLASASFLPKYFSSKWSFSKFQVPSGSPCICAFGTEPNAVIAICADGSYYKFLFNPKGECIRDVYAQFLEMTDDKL
UniProt Q69YI7: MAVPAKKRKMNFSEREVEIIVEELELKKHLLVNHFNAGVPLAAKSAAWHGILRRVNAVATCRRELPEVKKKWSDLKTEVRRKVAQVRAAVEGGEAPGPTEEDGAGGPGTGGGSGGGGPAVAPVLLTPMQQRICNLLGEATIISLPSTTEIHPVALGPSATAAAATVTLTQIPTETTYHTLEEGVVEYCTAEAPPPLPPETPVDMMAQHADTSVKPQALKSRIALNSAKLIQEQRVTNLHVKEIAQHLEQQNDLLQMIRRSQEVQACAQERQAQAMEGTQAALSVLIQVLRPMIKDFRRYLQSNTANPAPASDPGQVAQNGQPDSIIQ
UniProt Q5JU69: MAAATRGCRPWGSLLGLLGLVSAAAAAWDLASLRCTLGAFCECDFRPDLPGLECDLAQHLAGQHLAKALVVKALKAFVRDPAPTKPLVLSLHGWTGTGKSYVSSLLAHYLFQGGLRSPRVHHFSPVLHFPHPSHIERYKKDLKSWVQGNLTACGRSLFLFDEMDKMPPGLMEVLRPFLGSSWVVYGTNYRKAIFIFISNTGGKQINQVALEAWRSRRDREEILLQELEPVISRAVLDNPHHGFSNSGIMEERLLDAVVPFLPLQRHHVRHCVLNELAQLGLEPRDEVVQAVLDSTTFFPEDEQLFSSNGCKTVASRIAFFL
UniProt Q5JS54: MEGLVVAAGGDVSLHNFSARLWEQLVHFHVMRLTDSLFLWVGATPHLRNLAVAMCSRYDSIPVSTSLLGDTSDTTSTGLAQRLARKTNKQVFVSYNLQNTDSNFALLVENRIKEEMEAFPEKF
UniProt Q53H12: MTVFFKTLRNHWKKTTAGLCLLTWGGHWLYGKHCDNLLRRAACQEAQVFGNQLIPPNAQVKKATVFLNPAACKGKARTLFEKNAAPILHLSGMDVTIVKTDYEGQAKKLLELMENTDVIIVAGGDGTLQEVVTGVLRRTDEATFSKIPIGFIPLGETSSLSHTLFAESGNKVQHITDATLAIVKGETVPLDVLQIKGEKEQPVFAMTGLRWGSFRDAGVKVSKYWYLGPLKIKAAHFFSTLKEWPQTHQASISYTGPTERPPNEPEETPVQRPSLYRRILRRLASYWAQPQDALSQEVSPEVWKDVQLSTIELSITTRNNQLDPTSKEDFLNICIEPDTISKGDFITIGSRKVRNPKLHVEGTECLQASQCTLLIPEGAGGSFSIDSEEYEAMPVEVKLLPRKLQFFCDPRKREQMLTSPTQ

Target	NP40-soluble protein abundance (concentration: 1mM)	NP40-soluble protein abundance (concentration: 2mM)	NP40-soluble protein abundance (concentration: 4mM)	NP40-soluble protein abundance (concentration: 6mM)	NP40-soluble protein abundance (concentration: 8mM)	NP40-soluble protein abundance (concentration: 10mM)
UniProt Q5JTH9 and related entries	0.992 ± 0.024	1.02 ± 0.038	0.995 ± 0.073	1.028 ± 0.007	1.02 ± 0.065	1.1 ± 0.045
UniProt Q6ICL3 and related entries	1.01 ± 0.053	0.947 ± 0.097	1.03 ± 0.13	0.967 ± 0.13	0.976 ± 0.11	0.959 ± 0.15
PMF1 (UniProt Q6P1K2)	1.02 ± 0.12	0.968 ± 0.046	1.02 ± 0.077	1.01 ± 0.096	0.973 ± 0.077	0.975 ± 0.093
CEP350 (UniProt Q5VT06)	0.975 ± 0.073	0.975 ± 0.17	0.892 ± 0.13	0.917 ± 0.2	0.935 ± 0.093	0.939 ± 0.13
UniProt Q5T2E6 and related entries	1.04 ± 0.11	1.04 ± 0.1	1.02 ± 0.083	0.969 ± 0.13	0.99 ± 0.072	0.956 ± 0.048
DNAL1 (UniProt Q4LDG9)	0.989 ± 0.064	0.958 ± 0.016	1.015 ± 0.01	1.05 ± 0.1	0.939 ± 0.059	0.819 ± 0.15
UniProt Q5T2D3	1.38 ± 0.15	1.35 ± 0.24	1.56 ± 0.24	1.5 ± 0.22	1.49 ± 0.33	1.59 ± 0.056
LYRM7 (UniProt Q5U5X0)	0.903 ± 0.16	0.893 ± 0.13	0.888 ± 0.11	0.869 ± 0.14	0.875 ± 0.11	0.775 ± 0.2
UniProt Q52LJ0-2	1.02 ± 0.11	0.962 ± 0.016	0.945 ± 0.022	1 ± 0.031	0.9744 ± 0.0044	0.943 ± 0.029
UniProt Q53TN4 and related entries	1.04 ± 0.16	1.05 ± 0.18	1.06 ± 0.087	1.15 ± 0.12	0.99 ± 0.16	1.07 ± 0.069
NADSYN1 (UniProt Q6IA69)	0.996 ± 0.13	1.02 ± 0.028	1.07 ± 0.019	0.959 ± 0.035	0.991 ± 0.071	0.955 ± 0.018
Q5JSC0 and related entries (UniProt Q5VZF2)	1.044 ± 0.0042	0.9886 ± 0.0029	0.995 ± 0.072	0.993 ± 0.1	0.984 ± 0.04	0.957 ± 0.041
UniProt Q6PD74 and related entries	0.958 ± 0.056	0.985 ± 0.076	0.972 ± 0.087	0.981 ± 0.056	0.958 ± 0.025	0.948 ± 0.078
UniProt Q5VZE5	1.02 ± 0.074	1.04 ± 0.059	1.02 ± 0.067	1.02 ± 0.083	1.04 ± 0.06	1.03 ± 0.064
UniProt Q66PJ3 and related entries	1.12 ± 0.056	1.08 ± 0.034	1.08 ± 0.045	1.08 ± 0.042	1.01 ± 0.0044	0.939 ± 0.052
UniProt Q6N043 and related entries	1.03 ± 0.039	1.07 ± 0.029	1.11 ± 0.046	1.16 ± 0.072	1.18 ± 0.048	1.21 ± 0.061
UniProt Q684P5-2|Q684P5-3|Q684P5	0.962 ± 0.028	0.975 ± 0.014	0.954 ± 0.0091	0.968 ± 0.015	0.939 ± 0.012	0.941 ± 0.012
MBLAC2 (UniProt Q68D91)	1.02 ± 0.1	1.03 ± 0.1	1.03 ± 0.1	0.971 ± 0.14	1.01 ± 0.086	1.02 ± 0.068
NUP188 (UniProt Q5SRE5)	1.06 ± 0.087	1.09 ± 0.084	1.15 ± 0.062	1.05 ± 0.087	1.24 ± 0.062	1.27 ± 0.045
UniProt Q6P9B6	0.952 ± 0.025	0.958 ± 0.13	0.962 ± 0.14	0.969 ± 0.1	0.958 ± 0.078	0.969 ± 0.066
UniProt Q5MNZ6	1.02 ± 0.15	1.02 ± 0.13	1.02 ± 0.12	0.945 ± 0.12	1 ± 0.1	1.02 ± 0.16
NAIF1 (UniProt Q69YI7)	1.03 ± 0.11	1.02 ± 0.066	0.987 ± 0.076	1 ± 0.087	0.932 ± 0.11	0.965 ± 0.15
TOR2A (UniProt Q5JU69)	0.883 ± 0.052	1.02 ± 0.035	0.949 ± 0.033	0.876 ± 0.074	0.896 ± 0.061	0.998 ± 0.038
UniProt Q5JS54 and related entries	0.977 ± 0.024	0.9954 ± 0.0085	0.909 ± 0.033	0.956 ± 0.029	0.96 ± 0.046	0.93 ± 0.046
MRPL2 (UniProt Q5T653)	1.04 ± 0.082	0.967 ± 0.12	0.955 ± 0.13	0.887 ± 0.14	0.973 ± 0.19	0.89 ± 0.11
AGK (UniProt Q53H12)	1.01 ± 0.12	1 ± 0.059	1.02 ± 0.054	0.983 ± 0.088	1.08 ± 0.032	1.09 ± 0.051

2 consecutive entries already listed:
Target	NP40-soluble protein abundance (concentration: 1mM)	NP40-soluble protein abundance (concentration: 2mM)	NP40-soluble protein abundance (concentration: 4mM)	NP40-soluble protein abundance (concentration: 6mM)	NP40-soluble protein abundance (concentration: 8mM)	NP40-soluble protein abundance (concentration: 10mM)
NADSYN1 (UniProt Q6IA69)	0.996 ± 0.13	1.02 ± 0.028	1.07 ± 0.019	0.959 ± 0.035	0.991 ± 0.071	0.955 ± 0.018
Q5JSC0 and related entries (UniProt Q5VZF2)	1.044 ± 0.0042	0.9886 ± 0.0029	0.995 ± 0.072	0.993 ± 0.1	0.984 ± 0.04	0.957 ± 0.041
